# Hit rate of the full screen: of about 3,300 compounds, about 60 (2%) showed an effect of 50% or more. The list shows a part of the results.
# System: HCoV-OC43
# Set-up: species or system RD; HTS, protection from HCoV-OC43 induced cell death, luminescent cell viability (CellCounting-Lite 2.0), inhibition rate
# Settings: 24 h post infection, 1 h compound pre-incubation; 10 µM; inhibitor
row,Structure (SMILES),OC43 Inhibition rate [%]
1,C[C@H]1C(=O)O[C@@H]2CCN3CC=C(COC(=O)[C@](C)(O)[C@]1(C)O)[C@H]23 [Monocrotaline],0.4
2,COc1cc2c(cc1OC)-c1c(OC)c(OC)cc3c1[C@H](C2)N(C)CC3 [Glaucine],10.9
3,CCCCC/C=C\C/C=C\CCCCCCCC(=O)NCc1ccccc1 [N-Benzyllinoleamide],40
4,CCCCCC/C=C\CCCC(=O)O [cis-5-Dodecenoic acid],-0.1
5,CC(C)(O)CC[C@@H](O)[C@](C)(O)[C@H]1CC[C@@]2(O)C3=CC(=O)[C@@H]4C[C@@H](O)[C@@H](O)C[C@]4(C)[C@H]3CC[C@]12C [Crustecdysone],0
6,COc1ccc2c(c1O)-c1c(O)c(OC)cc3c1[C@H](C2)[N+](C)(C)CC3 [(+)-Magnoflorine (chloride)],2.4
7,O=C1c2c(O)cc(O)cc2O[C@H](c2ccc(O)c(O)c2)[C@H]1O [Taxifolin],2.1
8,C=C(C)[C@@H]1CCC2=CCC[C@@H](C)[C@]2(C)C1 [Valencene],1.5
9,CC1(C)CC[C@]2(C(=O)O[C@@H]3O[C@H](CO[C@@H]4O[C@H](CO)[C@@H](O)[C@H](O)[C@H]4O)[C@@H](O)[C@H](O)[C@H]3O)CC[C@]3(C)C(=CC[C@@H]4[C@@]5(C)CC[C@H](O[C@@H]6OC[C@H](O)[C@H](O)[C@H]6O)[C@@](C)(CO)[C@@H]5CC[C@]43C)[C@@H]2C1 [Asperosaponin VI],-0.1
10,CC(C)=C[C@H]1C[C@](C)(O)[C@@H]2[C@H]3CC[C@@H]4[C@@]5(C)CC[C@H](O[C@@H]6OC[C@H](O)[C@H](O[C@@H]7O[C@H](CO)[C@@H](O)[C@H](O)[C@H]7O[C@@H]7OC[C@@H](O)[C@H](O)[C@H]7O)[C@H]6O[C@@H]6O[C@@H](C)[C@H](O)[C@@H](O)[C@H]6O)C(C)(C)[C@@H]5CC[C@@]4(C)[C@@]34CO[C@@]2(C4)O1 [Jujuboside B],0.5
11,COc1cc(O)c(C(C)=O)c(OC)c1 [Xanthoxylin],0
12,C[C@]12CCC(=O)C[C@H]1CC[C@@H]1[C@@H]2[C@@H](O)C[C@@]2(C)[C@H]1CC[C@]2(O)C(=O)CO [5β-Dihydrocortisol],2.7
13,C[S+](CCC(N)C(=O)[O-])C[C@H]1O[C@@H](n2cnc3c(N)ncnc32)[C@H](O)[C@@H]1O (mixture of isomers) [S-Adenosyl-DL-methionine],-0.6
14,Cc1ncc(C[n+]2csc(CCOP(=O)(O)O)c2C)c(N)n1 [Thiamine monophosphate (chloride) (dihydrate)],-1.9

# Ordered by number of heavy atoms (rising): three of the compounds above
row,Structure (SMILES),OC43 Inhibition rate [%]
7,O=C1c2c(O)cc(O)cc2O[C@H](c2ccc(O)c(O)c2)[C@H]1O [Taxifolin],2.1
1,C[C@H]1C(=O)O[C@@H]2CCN3CC=C(COC(=O)[C@](C)(O)[C@]1(C)O)[C@H]23 [Monocrotaline],0.4
13,C[S+](CCC(N)C(=O)[O-])C[C@H]1O[C@@H](n2cnc3c(N)ncnc32)[C@H](O)[C@@H]1O (mixture of isomers) [S-Adenosyl-DL-methionine],-0.6
